The list shows a part of the results. Residues, ends and D or L forms follow the SMILES beside them. *: point of attachment. Cbz = O=C(OCc1ccccc1)*
What was measured:
Experiment in all cases: log2 fold change, soluble protein after heating vs DMSO (PISA); higher = thermal stabilisation; K562 cells, 10 uM, 30 min; active = over 0.2 and 3.5 SD of the protein, either way, in both replicates (recomputed)
[1] = compound: C#Cc1cccc(Nc2ncnc3cc(OCCOC)c(OCCOC)cc23)c1 [erlotinib]
In short: (§1)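 Soluble protein was quantified by TMTpro 16plex LC-MS/MS after channel sums were equalised. It was obtained as the supernatant after 21,000xg for 90 min from pooled aliquots of K562 cells (2×10^6 cells/mL, 10 μM compound, 30 min) heated for 3 min across 48°C-58°C and extracted in PBS with 0.5% NP-40 at 4°C. Thermal stability values are relative to control samples and come from duplicates. They are given as log2 fold changes.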

Sequences of proteins named here, by UniProt entry; tags and fusion partners are left off. A change or cut given only in a name is not applied to a line headed by its entry.
UniProt O75143: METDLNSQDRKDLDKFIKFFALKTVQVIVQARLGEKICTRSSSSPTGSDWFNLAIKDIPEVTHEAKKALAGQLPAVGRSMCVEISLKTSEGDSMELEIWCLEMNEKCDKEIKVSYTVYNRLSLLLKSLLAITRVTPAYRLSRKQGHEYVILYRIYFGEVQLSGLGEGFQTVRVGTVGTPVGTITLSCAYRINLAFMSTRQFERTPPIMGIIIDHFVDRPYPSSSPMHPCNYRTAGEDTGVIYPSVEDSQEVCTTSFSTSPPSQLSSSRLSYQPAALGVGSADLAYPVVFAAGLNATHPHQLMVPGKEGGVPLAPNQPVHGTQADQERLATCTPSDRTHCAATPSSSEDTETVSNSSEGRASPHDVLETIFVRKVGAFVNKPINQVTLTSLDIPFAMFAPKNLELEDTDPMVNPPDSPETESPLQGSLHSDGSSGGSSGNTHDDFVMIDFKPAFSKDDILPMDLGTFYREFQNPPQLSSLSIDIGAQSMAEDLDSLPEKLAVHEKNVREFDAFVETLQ
UniProt O75947: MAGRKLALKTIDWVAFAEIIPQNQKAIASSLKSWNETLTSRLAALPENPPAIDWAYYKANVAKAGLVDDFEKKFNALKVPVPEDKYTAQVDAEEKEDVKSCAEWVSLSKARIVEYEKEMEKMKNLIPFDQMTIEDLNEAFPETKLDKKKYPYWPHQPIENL
UniProt P30049: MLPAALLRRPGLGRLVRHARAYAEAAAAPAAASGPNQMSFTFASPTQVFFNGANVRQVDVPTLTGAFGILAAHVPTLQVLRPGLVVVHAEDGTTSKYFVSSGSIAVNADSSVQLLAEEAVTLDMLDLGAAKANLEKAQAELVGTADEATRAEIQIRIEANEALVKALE
UniProt Q9UH62: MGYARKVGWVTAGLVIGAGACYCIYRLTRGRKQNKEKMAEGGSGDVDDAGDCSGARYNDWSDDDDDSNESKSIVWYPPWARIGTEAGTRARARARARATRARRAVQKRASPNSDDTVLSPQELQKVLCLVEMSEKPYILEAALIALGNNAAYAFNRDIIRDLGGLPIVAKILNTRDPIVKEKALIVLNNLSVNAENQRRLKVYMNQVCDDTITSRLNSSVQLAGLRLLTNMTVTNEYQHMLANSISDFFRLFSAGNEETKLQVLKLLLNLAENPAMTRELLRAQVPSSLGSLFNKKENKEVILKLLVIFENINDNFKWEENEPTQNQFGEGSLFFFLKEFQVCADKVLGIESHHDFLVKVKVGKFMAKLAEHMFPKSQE
UniProt O95352: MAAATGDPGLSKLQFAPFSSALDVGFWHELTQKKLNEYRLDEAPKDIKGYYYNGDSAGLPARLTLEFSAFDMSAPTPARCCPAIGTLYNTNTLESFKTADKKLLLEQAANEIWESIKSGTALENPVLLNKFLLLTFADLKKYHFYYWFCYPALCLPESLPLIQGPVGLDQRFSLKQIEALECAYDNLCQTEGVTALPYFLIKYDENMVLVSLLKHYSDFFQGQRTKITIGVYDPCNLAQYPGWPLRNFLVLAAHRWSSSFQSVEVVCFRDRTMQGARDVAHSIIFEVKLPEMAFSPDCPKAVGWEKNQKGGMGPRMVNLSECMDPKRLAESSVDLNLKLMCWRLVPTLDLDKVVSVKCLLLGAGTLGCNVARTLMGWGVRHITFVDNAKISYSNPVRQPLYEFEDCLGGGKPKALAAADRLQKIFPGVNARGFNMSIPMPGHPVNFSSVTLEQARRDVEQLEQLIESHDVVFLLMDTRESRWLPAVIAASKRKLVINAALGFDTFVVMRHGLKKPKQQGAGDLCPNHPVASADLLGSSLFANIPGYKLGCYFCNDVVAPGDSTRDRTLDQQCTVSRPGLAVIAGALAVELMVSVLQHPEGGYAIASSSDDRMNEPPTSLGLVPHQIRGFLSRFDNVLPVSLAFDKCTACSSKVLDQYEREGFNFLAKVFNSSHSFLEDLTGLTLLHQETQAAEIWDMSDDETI
UniProt Q9H1Y0: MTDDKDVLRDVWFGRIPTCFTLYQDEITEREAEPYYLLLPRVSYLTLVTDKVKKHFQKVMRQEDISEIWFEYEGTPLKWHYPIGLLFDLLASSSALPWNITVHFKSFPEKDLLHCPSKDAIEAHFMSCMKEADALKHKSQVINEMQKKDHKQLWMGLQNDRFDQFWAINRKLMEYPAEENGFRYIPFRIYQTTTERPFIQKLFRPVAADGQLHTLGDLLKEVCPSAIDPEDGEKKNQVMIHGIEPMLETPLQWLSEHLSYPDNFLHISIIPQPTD
UniProt Q9NVT9: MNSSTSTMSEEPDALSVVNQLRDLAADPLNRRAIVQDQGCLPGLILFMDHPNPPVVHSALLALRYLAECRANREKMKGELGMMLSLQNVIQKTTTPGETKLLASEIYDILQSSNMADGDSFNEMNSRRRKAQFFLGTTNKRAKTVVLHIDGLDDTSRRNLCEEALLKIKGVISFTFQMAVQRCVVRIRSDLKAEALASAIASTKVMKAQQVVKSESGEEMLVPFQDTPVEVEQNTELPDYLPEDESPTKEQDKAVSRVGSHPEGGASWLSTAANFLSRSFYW
UniProt Q9NVJ2: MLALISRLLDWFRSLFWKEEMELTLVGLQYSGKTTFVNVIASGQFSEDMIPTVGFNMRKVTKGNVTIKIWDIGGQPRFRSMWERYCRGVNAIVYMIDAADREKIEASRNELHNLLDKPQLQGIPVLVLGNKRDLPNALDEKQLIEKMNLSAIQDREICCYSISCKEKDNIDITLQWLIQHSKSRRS
UniProt Q9H993: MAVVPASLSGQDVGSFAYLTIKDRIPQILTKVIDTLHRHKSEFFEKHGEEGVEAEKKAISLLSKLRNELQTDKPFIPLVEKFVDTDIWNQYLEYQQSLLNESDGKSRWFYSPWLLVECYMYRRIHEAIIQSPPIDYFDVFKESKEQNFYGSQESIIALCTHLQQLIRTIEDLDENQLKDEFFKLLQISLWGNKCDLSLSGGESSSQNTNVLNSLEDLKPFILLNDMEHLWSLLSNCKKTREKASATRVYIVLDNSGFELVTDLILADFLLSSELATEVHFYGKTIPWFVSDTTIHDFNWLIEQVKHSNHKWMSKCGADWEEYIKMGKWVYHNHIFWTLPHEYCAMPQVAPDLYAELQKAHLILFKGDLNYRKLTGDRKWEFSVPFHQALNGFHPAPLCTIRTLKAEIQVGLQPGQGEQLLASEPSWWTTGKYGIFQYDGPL
UniProt P36543, whole entry, looked up: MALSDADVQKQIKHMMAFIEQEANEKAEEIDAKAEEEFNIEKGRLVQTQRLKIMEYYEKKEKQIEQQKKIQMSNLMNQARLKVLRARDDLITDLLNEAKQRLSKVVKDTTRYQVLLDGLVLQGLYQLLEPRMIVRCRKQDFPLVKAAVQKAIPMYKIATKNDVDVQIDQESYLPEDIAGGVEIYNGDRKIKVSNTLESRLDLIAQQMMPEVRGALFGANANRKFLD
UniProt Q9Y294, whole entry, looked up: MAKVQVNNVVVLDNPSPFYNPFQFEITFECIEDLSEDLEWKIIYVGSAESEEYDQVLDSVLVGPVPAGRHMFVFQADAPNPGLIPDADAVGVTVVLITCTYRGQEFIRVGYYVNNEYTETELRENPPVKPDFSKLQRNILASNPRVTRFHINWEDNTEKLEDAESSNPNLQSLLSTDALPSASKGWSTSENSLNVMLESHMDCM
UniProt P38606, whole entry, looked up: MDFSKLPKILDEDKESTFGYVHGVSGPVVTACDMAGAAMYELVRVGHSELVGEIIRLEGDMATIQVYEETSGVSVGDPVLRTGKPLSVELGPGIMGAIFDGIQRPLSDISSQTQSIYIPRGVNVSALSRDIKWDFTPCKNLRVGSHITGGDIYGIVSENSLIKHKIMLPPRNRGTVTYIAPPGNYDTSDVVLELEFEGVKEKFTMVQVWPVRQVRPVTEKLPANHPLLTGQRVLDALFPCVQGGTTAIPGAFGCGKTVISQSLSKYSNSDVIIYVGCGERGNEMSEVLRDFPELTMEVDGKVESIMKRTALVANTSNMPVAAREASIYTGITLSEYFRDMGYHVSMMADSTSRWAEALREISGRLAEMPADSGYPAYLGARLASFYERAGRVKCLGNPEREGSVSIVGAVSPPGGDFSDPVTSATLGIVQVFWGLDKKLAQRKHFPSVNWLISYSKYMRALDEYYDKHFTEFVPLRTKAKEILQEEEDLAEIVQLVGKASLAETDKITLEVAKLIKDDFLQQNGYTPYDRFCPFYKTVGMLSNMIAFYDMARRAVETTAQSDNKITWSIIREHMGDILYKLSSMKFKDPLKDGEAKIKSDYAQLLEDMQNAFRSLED
UniProt Q96BY7: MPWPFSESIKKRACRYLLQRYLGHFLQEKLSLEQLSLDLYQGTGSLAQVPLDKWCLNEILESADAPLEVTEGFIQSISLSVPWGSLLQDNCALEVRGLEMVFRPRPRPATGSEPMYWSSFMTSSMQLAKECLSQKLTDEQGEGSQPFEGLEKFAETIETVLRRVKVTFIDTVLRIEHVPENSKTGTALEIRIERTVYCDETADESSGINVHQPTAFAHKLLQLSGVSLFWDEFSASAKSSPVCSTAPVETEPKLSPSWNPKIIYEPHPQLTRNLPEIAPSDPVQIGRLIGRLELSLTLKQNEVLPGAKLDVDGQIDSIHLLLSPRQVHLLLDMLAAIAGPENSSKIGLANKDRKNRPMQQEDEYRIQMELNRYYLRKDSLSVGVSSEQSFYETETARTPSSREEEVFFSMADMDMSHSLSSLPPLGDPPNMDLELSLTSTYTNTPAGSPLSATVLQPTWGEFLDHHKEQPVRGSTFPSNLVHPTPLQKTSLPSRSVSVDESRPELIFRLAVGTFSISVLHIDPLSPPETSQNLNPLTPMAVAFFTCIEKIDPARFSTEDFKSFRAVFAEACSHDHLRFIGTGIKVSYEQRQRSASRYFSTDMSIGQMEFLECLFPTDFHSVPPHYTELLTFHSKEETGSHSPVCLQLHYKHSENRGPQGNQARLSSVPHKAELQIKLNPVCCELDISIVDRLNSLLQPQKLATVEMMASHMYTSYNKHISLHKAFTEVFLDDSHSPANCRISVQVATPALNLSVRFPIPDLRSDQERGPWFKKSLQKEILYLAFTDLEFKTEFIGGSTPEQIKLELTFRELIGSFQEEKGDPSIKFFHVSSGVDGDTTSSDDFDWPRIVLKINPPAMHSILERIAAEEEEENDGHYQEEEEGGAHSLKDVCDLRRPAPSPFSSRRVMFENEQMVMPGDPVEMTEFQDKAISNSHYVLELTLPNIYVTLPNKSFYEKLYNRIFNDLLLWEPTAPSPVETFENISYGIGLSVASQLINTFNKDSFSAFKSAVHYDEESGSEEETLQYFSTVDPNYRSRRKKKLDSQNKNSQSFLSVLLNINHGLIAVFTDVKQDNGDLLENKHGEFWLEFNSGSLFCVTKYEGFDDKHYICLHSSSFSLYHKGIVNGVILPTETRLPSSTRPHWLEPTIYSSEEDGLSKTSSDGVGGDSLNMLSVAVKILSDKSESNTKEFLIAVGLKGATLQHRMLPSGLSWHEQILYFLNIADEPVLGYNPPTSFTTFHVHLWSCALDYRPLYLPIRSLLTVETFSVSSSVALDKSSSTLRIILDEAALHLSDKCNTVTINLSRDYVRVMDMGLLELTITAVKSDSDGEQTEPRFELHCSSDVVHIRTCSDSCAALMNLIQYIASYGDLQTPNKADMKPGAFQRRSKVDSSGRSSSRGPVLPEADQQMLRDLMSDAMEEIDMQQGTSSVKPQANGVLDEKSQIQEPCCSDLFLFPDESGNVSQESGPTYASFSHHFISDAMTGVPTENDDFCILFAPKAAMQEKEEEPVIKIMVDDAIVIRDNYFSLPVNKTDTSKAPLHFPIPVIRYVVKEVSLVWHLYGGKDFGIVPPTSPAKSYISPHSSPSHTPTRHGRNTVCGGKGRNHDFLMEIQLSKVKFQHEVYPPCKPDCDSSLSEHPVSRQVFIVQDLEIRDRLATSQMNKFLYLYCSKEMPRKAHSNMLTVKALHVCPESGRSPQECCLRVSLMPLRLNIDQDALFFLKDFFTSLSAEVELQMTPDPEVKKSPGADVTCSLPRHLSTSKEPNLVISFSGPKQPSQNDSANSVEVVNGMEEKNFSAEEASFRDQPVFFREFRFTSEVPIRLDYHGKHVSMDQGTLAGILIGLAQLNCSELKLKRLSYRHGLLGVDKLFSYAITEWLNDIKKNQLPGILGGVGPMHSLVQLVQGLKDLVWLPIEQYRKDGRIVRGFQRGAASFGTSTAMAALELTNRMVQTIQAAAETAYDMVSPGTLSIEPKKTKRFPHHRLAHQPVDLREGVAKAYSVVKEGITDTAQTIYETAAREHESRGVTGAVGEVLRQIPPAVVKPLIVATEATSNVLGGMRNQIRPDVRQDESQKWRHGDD

[2] = compound: C/C(=N\NC(=O)C1=CC(=CC=C1)S(=O)(=O)N2CCOCC2)/C3=C(C=CC(=C3)Cl)O
In short: as §1

[3] = compound: C1=CC(=C(C=C1Cl)C2=NC3=NC=CN=C3C(=N2)NC4=CC=NC=C4)F
In short: as §1

[4] = compound: C1=CC(=CC=C1C2=NC3=C(N2)C=C(C=C3)C(=O)N)OC4=CC=C(C=C4)Cl
In short: as §1

[5] = compound: C1=CC2=C(C=CC(=C2)/C=C\3/C(=O)NC(=NCC4=CC=CS4)S3)N=C1
In short: as §1

[6] = compound: C1=CC2=NC=CN=C2C=C1/C=C/3\C(=O)NC(=O)S3
In short: as §1

[7] = compound: C1=CC=C(C=C1)C2=NC(=C(N2)C3=CC=NC=C3)C4=CC(=C(C=C4)Cl)O
In short: as §1

[8] = compound: C1=CC=C2C(=C1)C3=NNC4=CC=CC(=C43)C2=O
In short: as §1

[9] = compound: C1CCN(C1)C(=O)NC2=CC=CC(=C2)NC3=NC=C(C(=N3)NCCC4=CN=CN4)Br
In short: as §1

[10] = compound: C1CN(CCC1(CC2=CC=C(C=C2)Cl)N)C3=NC=NC4=C3C=CN4
In short: as §1

[11] = compound: C1COCCN1CCN2C3=CC=CC=C3N=C2NC(=O)C4=CC(=CC=C4)[N+](=O)[O-] [IRAK-1-4 Inhibitor I]
In short: as §1

[12] = compound: C=CC(=O)N1CCC[C@@H](n2nc(-c3ccc(Oc4ccccc4)cc3)c3c(N)ncnc32)C1 [ibrutinib]
In short: as §1

[13] = compound: CC(=O)c1cnc2ccc(-c3cc(Cl)c(O)c(Cl)c3)nc2c1N[C@H]1CC[C@H](CN(C)C)CC1
In short: as §1

[14] = compound: CC(C)(C)Cn1c(N)nc2ccc(-c3[nH]c(C(C)(C)C)nc3-c3ccc(F)cc3)nc21 [ralimetinib]
In short: as §1

[15] = compound: CC(C)(O)CC(=O)NCCn1ccc2ncnc(Nc3ccc(Oc4cccc(C(F)(F)F)c4)c(Cl)c3)c21
In short: as §1

[16] = compound: CC(C)C1=C2N=C(C=C(N2N=C1)NCC3=CC=CC=C3)NCCCCCCN
In short: as §1

[17] = compound: CC(C)C[C@@H](C=O)NC(=O)[C@H](CC(C)C)NC(=O)[C@H](CC(C)C)NC(=O)OCc1ccccc1
In short: as §1

[18] = compound: CC(C)N(C[C@H]1O[C@@H](n2cnc3c(N)ncnc32)[C@H](O)[C@@H]1O)[C@H]1C[C@@H](CCc2nc3cc(C(C)(C)C)ccc3[nH]2)C1 [pinometostat]
In short: as §1

[19] = compound: CC1=C(C(CC(=O)N1)C2=CC=C(C=C2)C(F)(F)F)C(=O)NC3=C(C=C4C(=C3)C=NN4)F
In short: as §1

[20] = compound: CC1=C(C2=C(C=C1)C(=O)C3=CC=CC=C3N2CCCN)C
In short: as §1

Measured: log2 fold change

ATG13 isoform 5 (UniProt O75143)
inactive: [1] -0.017 | [2] 0.011 | [3] -0.069 | [4] 0.007 | [5] 0.037 | [6] 0.059 | [7] -0.033 | [8] -0.071 | [9] 0.011 | [10] -0.054 | [11] 0 | [12] 0.055 | [13] -0.051 | [14] 0.051 | [15] -0.005 | [16] -0.03 | [17] 0.116 | [18] 0.001 | [19] 0.003 | [20] 0.005

ATP5PD (UniProt O75947)
inactive: [1] -0.04 | [2] -0.004 | [3] 0.083 | [4] -0.005 | [5] -0.002 | [6] 0.013 | [7] 0.02 | [8] 0.008 | [9] -0.006 | [10] 0.02 | [11] 0.046 | [12] 0.015 | [13] 0.065 | [14] 0.007 | [15] 0 | [16] 0.034 | [17] -0.068 | [18] -0.038 | [19] 0.018 | [20] 0.006

ATP5F1D (UniProt P30049)
inactive: [1] -0.058 | [2] 0.033 | [3] 0.084 | [4] -0.118 | [5] 0.005 | [6] 0.043 | [7] -0.008 | [8] 0.024 | [9] 0 | [10] -0.01 | [11] 0.03 | [12] -0.067 | [13] -0.084 | [14] -0.115 | [15] 0 | [16] -0.024 | [17] -0.042 | [18] -0.011 | [19] 0.016 | [20] 0.078

ARMCX3 (UniProt Q9UH62)
inactive: [1] 0.055 | [2] 0.027 | [3] -0.006 | [4] 0.04 | [5] -0.031 | [6] -0.074 | [7] -0.061 | [8] 0.021 | [9] -0.069 | [10] -0.299 | [11] -0.145 | [12] 0.013 | [13] 0.044 | [14] 0.081 | [15] -0.058 | [16] -0.001 | [17] 0.092 | [18] 0.208 | [19] 0.011 | [20] 0.052

ATP2B1 isoform 1 (UniProt P20020)
inactive: [1] 0.027 | [2] 0.019 | [3] 0.03 | [4] -0.004 | [5] 0.011 | [6] 0.004 | [7] 0.001 | [8] -0.069 | [9] -0.008 | [10] 0.115 | [11] 0.012 | [12] 0.032 | [13] -0.027 | [14] -0.043 | [15] -0.007 | [16] 0.13 | [17] -0.014 | [18] -0.035 | [19] -0.004 | [20] 0.073

ASAP1 isoform 2 (UniProt Q9ULH1)
inactive: [1] 0.134 | [2] 0.031 | [3] 0.015 | [4] -0.034 | [5] 0.065 | [6] -0.097 | [7] -0.014 | [8] 0.081 | [9] -0.046 | [10] -0.09 | [11] -0.098 | [12] 0.057 | [13] -0.118 | [14] -0.054 | [15] -0.096 | [16] -0.06 | [17] 0.029 | [18] 0.015 | [19] -0.004 | [20] 0.041

ATG7 (UniProt O95352)
inactive: [1] -0.022 | [2] 0.09 | [3] 0.018 | [4] 0.02 | [5] -0.004 | [6] -0.002 | [7] 0.052 | [8] 0.054 | [9] 0.006 | [10] 0.016 | [11] -0.001 | [12] -0.022 | [13] 0.007 | [14] 0.01 | [15] -0.048 | [16] -0.043 | [17] -0.021 | [18] 0.013 | [19] -0.006 | [20] -0.014

ATG5 (UniProt Q9H1Y0)
inactive: [1] -0.005 | [2] 0.009 | [3] 0.06 | [4] 0.047 | [5] 0.017 | [6] 0.032 | [7] 0.1 | [8] 0.07 | [9] -0.035 | [10] 0.027 | [11] 0.035 | [12] 0.035 | [13] 0.02 | [14] 0.009 | [15] -0.014 | [16] -0.07 | [17] -0.006 | [18] 0.014 | [19] -0.056 | [20] 0.026

ARMC1 (UniProt Q9NVT9)
inactive: [1] 0.004 | [2] 0.039 | [3] 0.044 | [4] 0.003 | [5] 0.022 | [6] 0.038 | [7] -0.009 | [8] 0.022 | [9] 0.002 | [10] 0.003 | [11] 0.041 | [12] -0.027 | [13] -0.078 | [14] 0.054 | [15] -0.15 | [16] -0.139 | [17] 0.026 | [18] 0.012 | [19] 0.085 | [20] 0.048

ARL8B (UniProt Q9NVJ2)
inactive: [1] 0.013 | [2] 0.031 | [3] 0.019 | [4] -0.007 | [5] -0.018 | [6] 0.022 | [7] 0.025 | [8] -0.014 | [9] 0.025 | [10] 0.056 | [11] 0.034 | [12] 0.02 | [13] -0.013 | [14] -0.032 | [15] 0.006 | [16] -0.093 | [17] 0 | [18] -0.038 | [19] -0.024 | [20] -0.025

ARMT1 (UniProt Q9H993)
inactive: [1] 0.172 | [2] 0.217 | [3] -0.139 | [4] -0.044 | [5] 0.11 | [6] -0.027 | [7] -0.028 | [8] -0.017 | [9] 0.011 | [10] -0.432 | [11] -0.303 | [12] 0 | [13] -0.03 | [14] 0.184 | [15] -0.163 | [16] -0.438 | [17] 0.175 | [18] 0.272 | [19] 0.039 | [20] -0.245

ATP6V1E1 (UniProt P36543)
inactive: [1] 0.019 | [2] 0.029 | [3] -0.073 | [4] -0.003 | [5] 0.034 | [6] 0.016 | [7] -0.086 | [8] 0.042 | [9] -0.01 | [10] -0.102 | [11] -0.007 | [12] -0.008 | [13] -0.071 | [14] 0.046 | [15] 0.017 | [16] -0.069 | [17] 0.024 | [18] 0.007 | [19] -0.007 | [20] 0.109

ARPC5 (UniProt O15511)
inactive: [1] 0 | [2] -0.003 | [3] 0.015 | [4] -0.008 | [5] -0.017 | [6] 0.022 | [7] 0.003 | [8] -0.016 | [9] -0.014 | [10] -0.012 | [11] 0.022 | [12] -0.001 | [13] 0.023 | [14] 0.002 | [15] 0.036 | [16] 0.141 | [17] -0.029 | [18] -0.036 | [19] -0.007 | [20] 0.071

ASF1A (UniProt Q9Y294)
inactive: [1] 0.055 | [2] 0.007 | [3] 0.143 | [4] 0.004 | [5] -0.009 | [6] 0.048 | [7] -0.001 | [8] -0.015 | [9] 0.034 | [10] -0.032 | [11] 0.052 | [12] -0.037 | [13] -0.02 | [14] -0.051 | [15] -0.051 | [16] -0.028 | [17] 0.024 | [18] -0.052 | [19] -0.008 | [20] 0.041

ATP6V1A (UniProt P38606)
inactive: [1] -0.027 | [2] 0.009 | [3] -0.034 | [4] 0.018 | [5] -0.02 | [6] 0.009 | [7] -0.124 | [8] 0 | [9] -0.033 | [10] -0.035 | [11] 0.002 | [12] 0.016 | [13] -0.029 | [14] 0.027 | [15] 0.031 | [16] -0.175 | [17] 0.014 | [18] 0.003 | [19] 0.008 | [20] 0.014

ATG2B (UniProt Q96BY7)
inactive: [1] -0.003 | [2] 0 | [3] 0.006 | [4] 0.038 | [5] 0.017 | [6] 0.005 | [7] -0.021 | [8] -0.022 | [9] 0.012 | [10] 0.02 | [11] 0.03 | [12] -0.013 | [13] -0.04 | [14] -0.03 | [15] -0.008 | [16] -0.038 | [17] 0.023 | [18] -0.005 | [19] 0.027 | [20] -0.017
